Reference: the supplement of paper PMC12067093, “Discovery and optimisation of a covalent ligand for TRIM25 and its application to targeted protein ubiquitination” (Chemical Science, 2025)
This is one part of the list.

Sequences of proteins named here, by UniProt entry; tags and fusion partners are left off. A change or cut given only in a name is not applied to a line headed by its entry.
UniProt P53618: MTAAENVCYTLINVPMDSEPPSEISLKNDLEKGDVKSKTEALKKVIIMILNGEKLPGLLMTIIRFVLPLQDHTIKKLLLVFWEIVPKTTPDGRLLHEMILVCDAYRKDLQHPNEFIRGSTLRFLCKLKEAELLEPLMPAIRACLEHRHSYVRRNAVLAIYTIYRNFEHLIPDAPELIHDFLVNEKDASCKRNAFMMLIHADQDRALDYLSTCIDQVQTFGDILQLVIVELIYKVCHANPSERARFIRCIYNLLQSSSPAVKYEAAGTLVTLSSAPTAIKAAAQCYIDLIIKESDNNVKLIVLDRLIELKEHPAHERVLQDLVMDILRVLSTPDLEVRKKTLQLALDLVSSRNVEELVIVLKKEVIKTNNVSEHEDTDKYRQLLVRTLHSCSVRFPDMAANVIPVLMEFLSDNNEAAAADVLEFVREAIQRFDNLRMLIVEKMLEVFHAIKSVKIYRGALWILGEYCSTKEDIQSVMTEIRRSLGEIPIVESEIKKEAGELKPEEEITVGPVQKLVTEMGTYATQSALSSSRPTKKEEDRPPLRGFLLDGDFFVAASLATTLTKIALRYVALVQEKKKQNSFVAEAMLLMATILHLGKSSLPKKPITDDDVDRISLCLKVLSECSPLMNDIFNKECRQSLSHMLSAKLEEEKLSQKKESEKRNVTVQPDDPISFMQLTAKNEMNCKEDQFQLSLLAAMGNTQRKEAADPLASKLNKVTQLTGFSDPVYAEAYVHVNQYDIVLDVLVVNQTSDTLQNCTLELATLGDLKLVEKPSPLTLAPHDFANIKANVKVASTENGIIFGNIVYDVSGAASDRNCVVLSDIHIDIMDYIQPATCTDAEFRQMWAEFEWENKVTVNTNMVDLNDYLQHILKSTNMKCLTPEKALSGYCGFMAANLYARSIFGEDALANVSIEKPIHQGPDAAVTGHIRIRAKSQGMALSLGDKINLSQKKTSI
UniProt Q7L5N1: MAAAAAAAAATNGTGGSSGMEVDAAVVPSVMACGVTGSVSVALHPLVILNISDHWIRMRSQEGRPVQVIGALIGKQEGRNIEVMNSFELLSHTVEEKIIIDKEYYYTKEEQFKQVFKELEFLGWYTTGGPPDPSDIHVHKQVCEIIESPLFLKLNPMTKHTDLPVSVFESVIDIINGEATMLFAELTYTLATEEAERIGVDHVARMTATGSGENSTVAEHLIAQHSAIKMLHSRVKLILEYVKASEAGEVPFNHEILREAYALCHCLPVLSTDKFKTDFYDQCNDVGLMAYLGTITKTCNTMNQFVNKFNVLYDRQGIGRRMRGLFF
UniProt Q9UP83: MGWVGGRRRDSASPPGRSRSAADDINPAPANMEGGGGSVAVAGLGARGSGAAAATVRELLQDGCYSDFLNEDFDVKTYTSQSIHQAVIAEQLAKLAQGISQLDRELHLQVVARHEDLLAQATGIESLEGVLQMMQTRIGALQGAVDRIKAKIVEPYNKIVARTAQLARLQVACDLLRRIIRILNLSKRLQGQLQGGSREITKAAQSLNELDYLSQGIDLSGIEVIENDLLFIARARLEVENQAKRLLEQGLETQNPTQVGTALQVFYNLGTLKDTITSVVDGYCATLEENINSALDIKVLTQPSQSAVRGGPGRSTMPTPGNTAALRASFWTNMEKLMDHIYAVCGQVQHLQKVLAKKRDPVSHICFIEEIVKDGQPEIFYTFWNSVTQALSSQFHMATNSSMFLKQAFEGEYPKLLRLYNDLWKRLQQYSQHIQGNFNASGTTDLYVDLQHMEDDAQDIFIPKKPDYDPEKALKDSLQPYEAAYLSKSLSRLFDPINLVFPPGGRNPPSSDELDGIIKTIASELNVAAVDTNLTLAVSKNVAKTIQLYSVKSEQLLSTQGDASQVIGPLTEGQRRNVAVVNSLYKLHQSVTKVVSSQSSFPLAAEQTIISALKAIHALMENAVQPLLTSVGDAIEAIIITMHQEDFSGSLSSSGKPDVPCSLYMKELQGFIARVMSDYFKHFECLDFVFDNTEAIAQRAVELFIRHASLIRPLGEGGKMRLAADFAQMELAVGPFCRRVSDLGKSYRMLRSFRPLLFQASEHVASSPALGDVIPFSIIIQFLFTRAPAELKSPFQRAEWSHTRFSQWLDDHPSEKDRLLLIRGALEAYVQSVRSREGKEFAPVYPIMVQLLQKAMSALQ
UniProt Q9UNS2: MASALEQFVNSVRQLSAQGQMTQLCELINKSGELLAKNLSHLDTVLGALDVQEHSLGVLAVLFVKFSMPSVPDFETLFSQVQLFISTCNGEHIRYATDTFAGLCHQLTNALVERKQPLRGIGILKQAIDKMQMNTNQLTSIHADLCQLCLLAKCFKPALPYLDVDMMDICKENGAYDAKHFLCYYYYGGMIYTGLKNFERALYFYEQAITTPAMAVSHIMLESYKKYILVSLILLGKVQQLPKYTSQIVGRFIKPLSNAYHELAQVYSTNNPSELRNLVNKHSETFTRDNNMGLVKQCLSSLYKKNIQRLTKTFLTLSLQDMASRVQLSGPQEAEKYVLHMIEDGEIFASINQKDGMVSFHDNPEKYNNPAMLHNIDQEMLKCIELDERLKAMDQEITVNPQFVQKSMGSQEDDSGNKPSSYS
UniProt P53621: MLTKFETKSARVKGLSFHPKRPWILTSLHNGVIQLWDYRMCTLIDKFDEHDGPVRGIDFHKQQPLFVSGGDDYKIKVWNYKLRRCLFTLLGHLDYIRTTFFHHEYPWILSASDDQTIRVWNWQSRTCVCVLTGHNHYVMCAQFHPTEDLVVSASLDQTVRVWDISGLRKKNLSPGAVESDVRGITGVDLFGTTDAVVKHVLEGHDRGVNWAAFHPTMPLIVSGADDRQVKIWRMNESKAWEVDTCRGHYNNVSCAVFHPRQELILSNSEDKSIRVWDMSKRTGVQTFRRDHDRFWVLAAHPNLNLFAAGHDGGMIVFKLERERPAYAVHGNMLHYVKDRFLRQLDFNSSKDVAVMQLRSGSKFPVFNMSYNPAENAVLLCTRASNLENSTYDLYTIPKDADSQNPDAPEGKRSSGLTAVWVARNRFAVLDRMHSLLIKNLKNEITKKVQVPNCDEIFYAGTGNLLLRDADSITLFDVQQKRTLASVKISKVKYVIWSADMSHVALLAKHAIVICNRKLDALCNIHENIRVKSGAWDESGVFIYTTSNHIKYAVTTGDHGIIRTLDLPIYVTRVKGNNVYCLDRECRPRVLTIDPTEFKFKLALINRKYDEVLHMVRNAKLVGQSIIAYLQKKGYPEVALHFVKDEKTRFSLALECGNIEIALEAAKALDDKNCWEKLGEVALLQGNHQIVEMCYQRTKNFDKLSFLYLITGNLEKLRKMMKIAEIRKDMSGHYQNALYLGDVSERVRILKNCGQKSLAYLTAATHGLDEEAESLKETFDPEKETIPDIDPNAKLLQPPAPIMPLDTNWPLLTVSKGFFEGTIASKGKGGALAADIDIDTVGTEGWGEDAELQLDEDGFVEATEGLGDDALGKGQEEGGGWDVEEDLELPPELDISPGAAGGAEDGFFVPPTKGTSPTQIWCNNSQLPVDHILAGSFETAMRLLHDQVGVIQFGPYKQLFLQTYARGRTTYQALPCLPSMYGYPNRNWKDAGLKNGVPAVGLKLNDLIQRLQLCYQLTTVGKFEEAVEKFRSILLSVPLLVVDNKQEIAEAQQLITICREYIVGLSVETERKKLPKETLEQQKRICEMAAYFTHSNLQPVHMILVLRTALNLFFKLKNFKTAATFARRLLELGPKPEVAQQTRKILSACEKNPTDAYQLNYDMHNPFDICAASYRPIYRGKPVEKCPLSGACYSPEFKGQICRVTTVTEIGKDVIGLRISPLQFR
UniProt Q9BT09: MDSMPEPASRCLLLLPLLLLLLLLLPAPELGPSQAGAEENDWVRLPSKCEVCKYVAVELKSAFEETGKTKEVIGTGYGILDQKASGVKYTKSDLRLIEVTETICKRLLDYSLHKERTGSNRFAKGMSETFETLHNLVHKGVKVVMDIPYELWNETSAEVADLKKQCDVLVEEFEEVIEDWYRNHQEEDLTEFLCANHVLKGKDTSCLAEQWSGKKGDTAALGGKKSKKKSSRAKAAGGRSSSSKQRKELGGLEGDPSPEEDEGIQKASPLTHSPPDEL
UniProt P49747: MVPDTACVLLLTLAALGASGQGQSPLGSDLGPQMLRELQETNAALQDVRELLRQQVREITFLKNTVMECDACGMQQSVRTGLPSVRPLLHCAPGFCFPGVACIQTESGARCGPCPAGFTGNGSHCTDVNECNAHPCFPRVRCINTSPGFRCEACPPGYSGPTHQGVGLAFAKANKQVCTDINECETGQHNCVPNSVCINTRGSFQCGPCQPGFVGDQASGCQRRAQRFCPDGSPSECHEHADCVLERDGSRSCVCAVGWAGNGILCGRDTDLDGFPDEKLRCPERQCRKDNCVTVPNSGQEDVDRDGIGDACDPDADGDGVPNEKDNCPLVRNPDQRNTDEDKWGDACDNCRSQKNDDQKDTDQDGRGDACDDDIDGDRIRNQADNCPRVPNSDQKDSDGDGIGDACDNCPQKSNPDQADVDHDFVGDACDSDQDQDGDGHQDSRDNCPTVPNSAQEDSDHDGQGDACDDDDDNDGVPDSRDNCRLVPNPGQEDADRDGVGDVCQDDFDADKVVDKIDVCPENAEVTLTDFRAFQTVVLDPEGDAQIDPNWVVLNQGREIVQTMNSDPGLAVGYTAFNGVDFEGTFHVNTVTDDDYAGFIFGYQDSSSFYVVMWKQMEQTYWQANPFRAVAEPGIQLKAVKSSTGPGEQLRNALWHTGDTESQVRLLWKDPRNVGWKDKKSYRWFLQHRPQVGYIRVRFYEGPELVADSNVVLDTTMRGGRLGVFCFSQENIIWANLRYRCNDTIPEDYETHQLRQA
UniProt Q96D53: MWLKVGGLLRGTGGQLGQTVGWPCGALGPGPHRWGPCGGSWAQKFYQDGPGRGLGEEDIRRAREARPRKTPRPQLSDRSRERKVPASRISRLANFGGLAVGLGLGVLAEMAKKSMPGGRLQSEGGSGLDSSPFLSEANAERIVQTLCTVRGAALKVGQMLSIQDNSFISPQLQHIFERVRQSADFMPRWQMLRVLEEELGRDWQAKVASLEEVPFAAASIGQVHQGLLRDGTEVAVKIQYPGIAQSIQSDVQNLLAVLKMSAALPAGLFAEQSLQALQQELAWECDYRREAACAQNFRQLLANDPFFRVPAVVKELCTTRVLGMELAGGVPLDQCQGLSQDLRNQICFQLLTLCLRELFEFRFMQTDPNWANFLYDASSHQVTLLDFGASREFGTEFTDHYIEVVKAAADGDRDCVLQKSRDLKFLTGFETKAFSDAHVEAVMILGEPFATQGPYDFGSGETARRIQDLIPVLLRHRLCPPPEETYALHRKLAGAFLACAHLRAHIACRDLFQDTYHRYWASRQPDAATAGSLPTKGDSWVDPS
UniProt Q9Y678: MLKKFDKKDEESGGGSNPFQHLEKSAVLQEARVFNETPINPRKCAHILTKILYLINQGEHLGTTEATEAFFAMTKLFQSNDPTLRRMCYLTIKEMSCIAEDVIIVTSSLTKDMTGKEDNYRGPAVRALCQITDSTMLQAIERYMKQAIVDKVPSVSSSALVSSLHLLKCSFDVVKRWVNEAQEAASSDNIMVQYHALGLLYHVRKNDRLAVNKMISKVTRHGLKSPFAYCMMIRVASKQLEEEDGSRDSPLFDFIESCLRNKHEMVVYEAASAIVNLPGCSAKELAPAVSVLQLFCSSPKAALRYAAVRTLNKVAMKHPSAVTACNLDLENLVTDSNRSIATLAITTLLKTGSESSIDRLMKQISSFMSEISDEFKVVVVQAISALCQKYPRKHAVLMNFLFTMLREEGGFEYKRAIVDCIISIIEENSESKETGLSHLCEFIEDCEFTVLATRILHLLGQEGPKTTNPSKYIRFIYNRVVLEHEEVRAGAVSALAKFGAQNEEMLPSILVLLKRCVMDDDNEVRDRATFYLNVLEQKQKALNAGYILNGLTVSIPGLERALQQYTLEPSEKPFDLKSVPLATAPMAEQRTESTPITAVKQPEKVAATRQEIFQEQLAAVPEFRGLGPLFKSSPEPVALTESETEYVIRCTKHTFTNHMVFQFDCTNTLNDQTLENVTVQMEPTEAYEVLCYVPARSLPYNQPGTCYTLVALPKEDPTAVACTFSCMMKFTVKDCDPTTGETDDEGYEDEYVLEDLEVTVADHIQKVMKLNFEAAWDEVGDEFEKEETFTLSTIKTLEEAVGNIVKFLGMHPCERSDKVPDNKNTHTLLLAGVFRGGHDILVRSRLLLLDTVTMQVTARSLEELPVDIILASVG
UniProt Q15417: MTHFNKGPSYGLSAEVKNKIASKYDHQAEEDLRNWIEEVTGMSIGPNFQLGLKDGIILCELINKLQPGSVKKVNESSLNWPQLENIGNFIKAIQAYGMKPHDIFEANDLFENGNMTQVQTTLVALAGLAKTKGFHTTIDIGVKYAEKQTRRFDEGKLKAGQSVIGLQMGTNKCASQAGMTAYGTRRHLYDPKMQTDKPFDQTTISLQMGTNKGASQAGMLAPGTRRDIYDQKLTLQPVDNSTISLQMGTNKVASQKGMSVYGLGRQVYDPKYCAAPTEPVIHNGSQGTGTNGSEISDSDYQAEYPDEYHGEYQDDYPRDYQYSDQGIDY

Compound: Cc1cc(ccc1-c1ccccc1)C(=O)N1CCCN(CC1)C(=O)CCl [compound 10]
Assay: probe-labelled cysteine peptide fold change vs DMSO (competition) (log2 fold change); higher = less target engagement (more negative = stronger competition)
Conditions: THP-1, incubation time: 4 h
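Further: competitive profiling in live THP-1 cells: cysteine peptides tagged with an iodoacetamide desthiobiotin (IA-DTB) probe, intensity after compound treatment relative to DMSO-treated cells.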

Row | Target | probe-labelled cysteine peptide fold change (10 µM) | probe-labelled cysteine peptide fold change (50 µM)
1 | CNOT1_A5YKK6_1706_AYGSPWCNK (UniProt A5YKK6) | 0.0353 | 0.0153
2 | CNTRL_Q7Z7A1_1451_LLAEAESELSCTK (UniProt Q7Z7A1) | 0.0751 | 0.155
3 | COPB1_P53618_102_LLHEMILVCDAYR (UniProt P53618) | 0.132 | 0.0394
4 | COG1_Q8WTW3_625_LCQSLGELCPHLK (UniProt Q8WTW3) | -0.144 | -0.347
5 | COPB1_P53618_684_NEMNCK (UniProt P53618) | -0.214 | -0.625
6 | COPS6_Q7L5N1_264_EAYALCHCLPVLSTDK (UniProt Q7L5N1) | 0.0459 | -0.053
7 | COG5_Q9UP83_366_KRDPVSHICFIEEIVK (UniProt Q9UP83) | 0.0448 | 0.479
8 | COPB2_P35606_681+689_CQFGLAQECLHHAQDYGGLLLLATASGNANMVNK (UniProt P35606) | -0.105 | 0.0226
9 | CMTR1_Q8N1G2_504_SNESHCSLQIK (UniProt Q8N1G2) | 0.0273 | -0.0233
10 | COPS3_Q9UNS2_25_QLSAQGQMTQLCELINK (UniProt Q9UNS2) | -0.139 | -0.0899
11 | CNOT1_A5YKK6_426_HAEGQLSFIQHSLINPEIFCFADYPCHTVATDILK (UniProt A5YKK6) | 0.0645 | -0.166
12 | COG3_Q96JB2_334_IPEYQQLLNDIHQCYLDQR (UniProt Q96JB2) | 0.246 | 0.0853
13 | COPA_P53621_453_VQVPNCDEIFYAGTGNLLLR (UniProt P53621) | -0.252 | -0.118
14 | COLGALT1_Q8NBJ5_412_GELGCFLSHYNIWK (UniProt Q8NBJ5) | 0.112 | 0.0586
15 | COMT_P21964_207_DRYLPDTLLLEECGLLRK (UniProt P21964) | -0.145 | -0.264
16 | COPS6_Q7L5N1_283_TDFYDQCNDVGLMAYLGTITK (UniProt Q7L5N1) | 0.015 | 0.222
17 | COG2_Q14746_358_QCGSQASVK (UniProt Q14746) | -0.0551 | 0.00367
18 | CMSS1_Q9BQ75_121_RLVIELEELNLPDSCFLK (UniProt Q9BQ75) | 0.0787 | -0.142
19 | COPS6_Q7L5N1_299_TCNTMNQFVNK (UniProt Q7L5N1) | -0.0716 | -0.199
20 | CNOT1_A5YKK6_219_CPVVLAPLLYPEKR (UniProt A5YKK6) | -0.231 | -0.768
21 | COPG2_Q9UBF2_446_EAGLAHLCEFIEDCEHTVLATK (UniProt Q9UBF2) | -0.0275 | 0.0938

Row | Target | probe-labelled cysteine peptide fold change (10 µM) | probe-labelled cysteine peptide fold change (50 µM)
22 | COA7_Q96BR5_37_DPDGCYR (UniProt Q96BR5) | -0.00866 | 0.0452
23 | CNNM4_Q6P4Q7_383_TVEDIMTQLQDCFMIR (UniProt Q6P4Q7) | 0.18 | -0.0113
24 | COMTD1_Q86VU5_133_VVTCEVDAQPPELGR (UniProt Q86VU5) | -0.0014 | 0.348
25 | COLGALT1_Q8NBJ5_283_QAEVQMYVCNK (UniProt Q8NBJ5) | 0.265 | 0.751
26 | CNPY3_Q9BT09_194_NHQEEDLTEFLCANHVLK (UniProt Q9BT09) | -0.302 | 0.294
27 | COG5_Q9UP83_284_DTITSVVDGYCATLEENINSALDIK (UniProt Q9UP83) | 0.1 | 0.0388
28 | COMP_P49747_348_WGDACDNCR (UniProt P49747) | -0.311 | 0.114
29 | COQ8B_Q96D53_508_AHIACR (UniProt Q96D53) | -0.221 | -1.08
30 | COPA_P53621_41_MCTLIDKFDEHDGPVR (UniProt P53621) | -0.00586 | -0.0496
31 | COPG1_Q9Y678_516_CVMDDDNEVRDR (UniProt Q9Y678) | 0.112 | 0.21
32 | COMP_P49747_520_VVDKIDVCPENAEVTLTDFR (UniProt P49747) | -0.456 | -0.435
33 | COPS3_Q9UNS2_149_MQMNTNQLTSIHADLCQLCLLAK (UniProt Q9UNS2) | 0.0827 | -0.189
34 | CORO1A_P31146_332_GLEVNKCEIAR (UniProt P31146) | -0.447 | -1.1
35 | CNTLN_Q9NXG0_228_ECVQNK (UniProt Q9NXG0) | -0.122 | -0.399
36 | CNST_Q6PJW8_292_CSTQLLVSEDPK (UniProt Q6PJW8) | -0.328 | -0.395
37 | COPB1_P53618_284_AAAQCYIDLIIK (UniProt P53618) | 0.153 | 0.249
38 | CNOT1_A5YKK6_219_CPVVLAPLLYPEK (UniProt A5YKK6) | 0.0635 | -0.221
39 | COPA_P53621_1148_KILSACEK (UniProt P53621) | -0.212 | -1.12
40 | COLGALT1_Q8NBJ5_203_AAYSNFWCGMTSQGYYK (UniProt Q8NBJ5) | -0.0916 | 0.0678
41 | COQ3_Q9NZJ6_358_GETEELQANACTNPAVHEK (UniProt Q9NZJ6) | -0.167 | -0.503
42 | CNN3_Q15417_59_DGIILCELINK (UniProt Q15417) | 0.0707 | 0.00907

Reformatted comma-delimited: part of the list above.
Row,Target,probe-labelled cysteine peptide fold change (10 µM),probe-labelled cysteine peptide fold change (50 µM)
29,COQ8B_Q96D53_508_AHIACR (UniProt Q96D53),-0.221,-1.08
30,COPA_P53621_41_MCTLIDKFDEHDGPVR (UniProt P53621),-0.00586,-0.0496
31,COPG1_Q9Y678_516_CVMDDDNEVRDR (UniProt Q9Y678),0.112,0.21
